Some of these results come from one statement about several compounds together.
System: intraocular pressure (IOP)
Experiment: In vivo tonometric IOP assay in microbead mouse model of ocular hypertension
Details: 1 μM and 10 μM; earliest determination time-frame
Protocol: FIG. 1 is a graph showing the effect that two concentrations of topical compound 11 (0.01% and 0.1%), 0.5% timolol, and control PBS had on IOP in the microbead (MB) mouse model of ocular hypertension (N=3 separate experiments, with 7-10 mice per experimental cohort). Error bars=±S.E.M. Ocular hypertension in the mouse model of primary open angle glaucoma (POAG) was induced with intracameral injection of polystyrene microbeads. Antagonist stock solutions (10 mM) were prepared in DMSO, the final concentrations were made in PBS diluted to <0.0001% DMSO.
FIG. 2 is a bar chart showing the cumulative data for pre-IOP elevation cohorts of mouse eyes (N≥3 separate experiments, with 7-10 mice per experimental cohort). Left panel: the IOP data are plotted as % of the control value of the timolol-treated eye cohort. […]
A tonometric assay was used to measured IOP changes in mice models of ocular hypertension over a period of weeks following topical application of the compounds. […]
A rebound tonometer was used to measure IOP at 1, 2, 6 and 10 hours post-injection after topical administration of Compounds 11 and 52 and timolol, a known medication for treatment of IOP associated with ocular hypertension and glaucoma. The IOP was determined from the means of 10 to 20 readings, following the protocol described in Ryskamp et al., Sci Rep 6:30583, 2016. […]

Row | SMILES | time to IOP lowering after single topical application
1 | N#Cc1ccc(OCC2(CO)CN(S(=O)(=O)c3ccc(Cl)cc3Cl)C2)cc1F [Compound 11, 4-((1-((2,4-Dichlorophenyl)sulfonyl)-3-(hydroxymethyl)azetidin-3-yl)methoxy)-2-fluorobenzonitrile] | ≤ 1 h
2 | Cl.N#Cc1ccc(OCC2(N)CN(S(=O)(=O)c3ccc(Cl)cc3Cl)C2)cc1F [Compound 52, 4-((3-Amino-1-((2,4-dichlorophenyl)sulfonyl)azetidin-3-yl)methoxy)-2-fluorobenzonitrile hydrochloride salt] | ≤ 1 h

From US20230026696A1, “TRPV4 RECEPTOR LIGANDS” (UNIVERSITY OF UTAH RESEARCH FOUNDATION, priority 2019, published 2023)
